Patent publication US20090118253A1, “COMPOSITIONS AND METHODS FOR TREATING DYSFUNCTIONAL UTERINE BLEEDING” (REPROS THERAPEUTICS INC., priority 2007, published 2009)
Some results were stated once for a whole list of compounds, not compound by compound.

Assay: Serum cortisol in rats
Assay type: in vivo, rat
Conditions: 10 mg/kg
Protocol: These higher levels were in the range of 3-4 ug/dl (30-40 ng/ml).

Structure (SMILES)	serum cortisol level [µg/dL]
CC(=O)OCC(=O)[C@@]1(OC(C)=O)CCC2C3CCC4=CC(=O)CCC4=C3C(c3ccc(N(C)C)cc3)C[C@@]21C (stereo partly drawn) [CDB-4059, 21-acetoxy-17α-acetoxy-11β-(4 N,N-dimethylaminophenyl)-19-norpregna-4,9-diene-3,20-dione]	3 to 4
COCC(=O)[C@@]1(OC(C)=O)CC[C@H]2[C@@H]3CCC4=CC(=O)CCC4=C3[C@@H](c3ccc(N(C)C)cc3)C[C@@]21C [CDB-4124, 21-methoxy-17α-acetoxy-11β-(4 N,N-dimethylaminophenyl)-19-norpregna-4,9-diene-3,20-dione]	3 to 4
